# Measurements published in the supplement of paper PMC8728848.
# The list shows a part of the results.
# Experiments:
# Assay in all cases: glycan array binding signal (z-score within array); higher = stronger binding
# Conditions in all cases: glycan notation: IUPAC condensed, linker removed
# Gal(b1-2)Gal = target: Gal(b1-2)Gal
# Procedure, shortened: (§1)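 Columns mapping to the same glycan were averaged after glycan names were converted to IUPAC-condensed notation. The data come from 3228 arrays in the Consortium for Functional Glycomics database, limited to those with an available protein sequence. Binding is reported as a within-array Z-score averaged across arrays of one protein sequence and across linkers.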
# Gal(b1-3)Gal = target: Gal(b1-3)Gal
# Procedure, shortened: as §1
# Gal(b1-3)Gal(b1-4)GlcNAc = target: Gal(b1-3)Gal(b1-4)GlcNAc
# Procedure, shortened: as §1
# Gal(b1-3)GalNAc = target: Gal(b1-3)GalNAc
# Procedure, shortened: as §1
# [1] = target: Gal(b1-3)GalNAc(a1-3)[Fuc(a1-2)]Gal(b1-4)Glc
# Procedure, shortened: as §1
# [2] = target: Gal(b1-3)GalNAc(a1-3)[Fuc(a1-2)]Gal(b1-4)GlcNAc
# Procedure, shortened: as §1
# Gal(b1-3)GalNAc(b1-3)Gal = target: Gal(b1-3)GalNAc(b1-3)Gal
# Procedure, shortened: as §1
# [3] = target: Gal(b1-3)GalNAc(b1-3)Gal(a1-4)Gal(b1-4)Glc
# Procedure, shortened: as §1
# [4] = target: Gal(b1-3)GalNAc(b1-4)Gal(b1-4)Glc
# Procedure, shortened: as §1
# [5] = target: Gal(b1-3)GalNAc(b1-4)[Neu5Ac(a2-3)]Gal(b1-4)Glc
# Procedure, shortened: as §1
# Gal(b1-3)GlcNAc = target: Gal(b1-3)GlcNAc
# Procedure, shortened: as §1
# [6] = target: Gal(b1-3)GlcNAc(a1-3)Gal(b1-4)GlcNAc
# Procedure, shortened: as §1
# [7] = target: Gal(b1-3)GlcNAc(a1-6)Gal(b1-4)GlcNAc
# Procedure, shortened: as §1
# Gal(b1-3)GlcNAc(b1-2)Man = target: Gal(b1-3)GlcNAc(b1-2)Man
# Procedure, shortened: as §1
# [8] = target: Gal(b1-3)GlcNAc(b1-2)Man(a1-3)[Gal(b1-3)GlcNAc(b1-2)Man(a1-6)]Man(b1-4)GlcNAc(b1-4)GlcNAc
# Procedure, shortened: as §1
# [9] = target: Gal(b1-3)GlcNAc(b1-2)Man(a1-3)[Gal(b1-3)GlcNAc(b1-2)Man(a1-6)]Man(b1-4)GlcNAc(b1-4)[Fuc(a1-6)]GlcNAc
# Procedure, shortened: as §1
# [10] = target: Gal(b1-3)GlcNAc(b1-2)Man(a1-3)[GlcNAc(b1-4)][Gal(b1-3)GlcNAc(b1-2)Man(a1-6)]Man(b1-4)GlcNAc(b1-4)GlcNAc
# Procedure, shortened: as §1
# [11] = target: Gal(b1-3)GlcNAc(b1-2)[Gal(b1-3)GlcNAc(b1-6)]Man(a1-6)[Gal(b1-3)GlcNAc(b1-2)Man(a1-3)]Man(b1-4)GlcNAc(b1-4)GlcNAc
# Procedure, shortened: as §1
# [12] = target: Gal(b1-3)GlcNAc(b1-3)Gal(b1-3)GlcNAc
# Procedure, shortened: as §1
# [13] = target: Gal(b1-3)GlcNAc(b1-3)Gal(b1-4)Glc
# Procedure, shortened: as §1
# [14] = target: Gal(b1-3)GlcNAc(b1-3)Gal(b1-4)GlcNAc
# Procedure, shortened: as §1
# [15] = target: Gal(b1-3)GlcNAc(b1-3)Gal(b1-4)GlcNAc(b1-2)Man(a1-3)[Gal(b1-3)GlcNAc(b1-3)Gal(b1-4)GlcNAc(b1-2)Man(a1-6)]Man(b1-4)GlcNAc(b1-4)GlcNAc
# Procedure, shortened: as §1
# [16] = target: Gal(b1-3)GlcNAc(b1-3)Gal(b1-4)GlcNAc(b1-2)[Gal(b1-3)GlcNAc(b1-3)Gal(b1-4)GlcNAc(b1-6)]Man(a1-6)[Gal(b1-3)GlcNAc(b1-3)Gal(b1-4)GlcNAc(b1-2)Man(a1-3)]Man(b1-4)GlcNAc(b1-4)[Fuc(a1-6)]GlcNAc
# Procedure, shortened: as §1
# [17] = target: Gal(b1-3)GlcNAc(b1-3)Gal(b1-4)GlcNAc(b1-3)Gal(b1-4)GlcNAc(b1-2)[Gal(b1-3)GlcNAc(b1-3)Gal(b1-4)GlcNAc(b1-3)Gal(b1-4)GlcNAc(b1-6)]Man(a1-6)[Gal(b1-3)GlcNAc(b1-3)Gal(b1-4)GlcNAc(b1-3)Gal(b1-4)GlcNAc(b1-2)Man(a1-3)]Man(b1-4)GlcNAc(b1-4)[Fuc(a1-6)]GlcNAc
# Procedure, shortened: as §1
# [18] = target: Gal(b1-3)GlcNAc(b1-3)Gal(b1-4)GlcNAc(b1-6)[Gal(b1-3)GlcNAc(b1-3)]Gal(b1-4)Glc
# Procedure, shortened: as §1
# [19] = target: Gal(b1-3)GlcNAc(b1-3)Gal(b1-4)[Fuc(a1-3)]GlcNAc
# Procedure, shortened: as §1
# [20] = target: Gal(b1-3)GlcNAc(b1-3)Gal(b1-4)[Fuc(a1-3)]GlcNAc(b1-6)[Gal(b1-3)GlcNAc(b1-3)]Gal(b1-4)Glc
# Procedure, shortened: as §1
# [21] = target: Gal(b1-3)GlcNAc(b1-3)GalNAc
# Procedure, shortened: as §1
# [22] = target: Gal(b1-3)GlcNAc(b1-6)Gal(b1-4)GlcNAc
# Procedure, shortened: as §1
# [23] = target: Gal(b1-3)GlcNAc(b1-6)GalNAc
# Procedure, shortened: as §1
# [24] = target: Gal(b1-3)GlcNAc(b1-6)[Gal(b1-3)]GalNAc
# Procedure, shortened: as §1
# Gal(b1-3)GlcNAc6S = target: Gal(b1-3)GlcNAc6S
# Procedure, shortened: as §1
# [25] = target: Gal(b1-3)[Fuc(a1-4)]GlcNAc
# Procedure, shortened: as §1
# [26] = target: Gal(b1-3)[Fuc(a1-4)]GlcNAc(b1-2)Man
# Procedure, shortened: as §1
# [27] = target: Gal(b1-3)[Fuc(a1-4)]GlcNAc(b1-2)Man(a1-3)[Gal(b1-3)[Fuc(a1-4)]GlcNAc(b1-2)Man(a1-6)]Man(b1-4)GlcNAc(b1-4)[Fuc(a1-6)]GlcNAc
# Procedure, shortened: as §1
# [28] = target: Gal(b1-3)[Fuc(a1-4)]GlcNAc(b1-3)Gal(b1-3)[Fuc(a1-4)]GlcNAc
# Procedure, shortened: as §1
# [29] = target: Gal(b1-3)[Fuc(a1-4)]GlcNAc(b1-3)Gal(b1-4)[Fuc(a1-3)]GlcNAc
# Procedure, shortened: as §1
# [30] = target: Gal(b1-3)[Fuc(a1-4)]GlcNAc(b1-6)GalNAc
# Procedure, shortened: as §1
# [31] = target: Gal(b1-3)[GlcNAc(b1-6)]GalNAc
# Procedure, shortened: as §1
# [32] = target: Gal(b1-3)[Neu5Ac(a2-6)]GalNAc
# Procedure, shortened: as §1
# [33] = target: Gal(b1-3)[Neu5Ac(a2-6)]GlcNAc(b1-4)Gal(b1-4)Glc
# Procedure, shortened: as §1
# [34] = target: Gal(b1-3)[Neu5Ac(b2-6)]GalNAc
# Procedure, shortened: as §1
# Gal(b1-4)Gal = target: Gal(b1-4)Gal
# Procedure, shortened: as §1
# [35] = target: Gal(b1-4)GalNAc(a1-3)[Fuc(a1-2)]Gal(b1-4)GlcNAc
# Procedure, shortened: as §1
# [36] = target: Gal(b1-4)GalNAc(b1-3)[Fuc(a1-2)]Gal(b1-4)GlcNAc
# Procedure, shortened: as §1
binder,measurement,setting,value
pilr alpha (protein) MLYGVTQPKHLSASMGGSVEIPFSFYYPWELATAPDVRISWRRGHFHRQSFYSTRPPSIHKDYVNRLFLNWTEGQKSGFLRISNLQKQDQSVYFCRVELDTRSSGRQQWQSIEGTKLSIT,glycan array binding signal (z-score),Gal(b1-2)Gal,-0.398
same,glycan array binding signal (z-score),Gal(b1-3)Gal,-0.475
same,glycan array binding signal (z-score),Gal(b1-3)Gal(b1-4)GlcNAc,0.688
same,glycan array binding signal (z-score),Gal(b1-3)GalNAc,-0.302
same,glycan array binding signal (z-score),[1],0.387
same,glycan array binding signal (z-score),[2],0.103
same,glycan array binding signal (z-score),Gal(b1-3)GalNAc(b1-3)Gal,-0.182
same,glycan array binding signal (z-score),[3],-0.094
same,glycan array binding signal (z-score),[4],2.46
same,glycan array binding signal (z-score),[5],0.1
same,glycan array binding signal (z-score),Gal(b1-3)GlcNAc,-0.571
same,glycan array binding signal (z-score),[6],-0.031
same,glycan array binding signal (z-score),[7],0.177
same,glycan array binding signal (z-score),Gal(b1-3)GlcNAc(b1-2)Man,-0.255
same,glycan array binding signal (z-score),[8],0.674
same,glycan array binding signal (z-score),[9],-0.587
same,glycan array binding signal (z-score),[10],0.778
same,glycan array binding signal (z-score),[11],-0.542
same,glycan array binding signal (z-score),[12],-0.764
same,glycan array binding signal (z-score),[13],-0.354
same,glycan array binding signal (z-score),[14],-0.556
same,glycan array binding signal (z-score),[15],0.14
same,glycan array binding signal (z-score),[16],0.467
same,glycan array binding signal (z-score),[17],0.296
same,glycan array binding signal (z-score),[18],-0.848
same,glycan array binding signal (z-score),[19],-0.24
same,glycan array binding signal (z-score),[20],0.008
same,glycan array binding signal (z-score),[21],-0.013
same,glycan array binding signal (z-score),[22],-0.459
same,glycan array binding signal (z-score),[23],0.108
same,glycan array binding signal (z-score),[24],0.219
same,glycan array binding signal (z-score),Gal(b1-3)GlcNAc6S,-0.425
same,glycan array binding signal (z-score),[25],-0.472
same,glycan array binding signal (z-score),[26],0.268
same,glycan array binding signal (z-score),[27],0.007
same,glycan array binding signal (z-score),[28],-0.709
same,glycan array binding signal (z-score),[29],-0.686
same,glycan array binding signal (z-score),[30],-0.479
same,glycan array binding signal (z-score),[31],0.136
same,glycan array binding signal (z-score),[32],-0.253
same,glycan array binding signal (z-score),[33],-0.371
same,glycan array binding signal (z-score),[34],0.12
same,glycan array binding signal (z-score),Gal(b1-4)Gal,0.003
same,glycan array binding signal (z-score),[35],-0.5
same,glycan array binding signal (z-score),[36],-0.343
